The numbers were not newly measured in patent publication US9365541B2, “Compounds for use in the treatment of parasitic diseases” (IRBM—SCIENCE PARK S.P.A., priority 2012, dated 2016), which cites them from elsewhere.

This data set deals with P. falciparum. The note with it: literature value; read-out: IC50 against P. falciparum; cited from earlier work.

Structures are written as SMILES.

As for `O=C(CCCCCCC(=O)Nc1ccccc1)NO` [SAHA], the half-inhibitory concentration (IC50) was 100 to 300 nM.
